# Some of the results follow.
# B1: GS7807Q-bfa-507-19-507 (Bacteroides fragilis) (protein)
# chain: ASCNKFDDLNTNPDAATKVTAPMLATKLILNITQQGSAKNFVYHSMLSKQIAWSENASDEQYNLFGRTDFDGYTILTNCQKMVDAANEGDKDSYAALAKFMKAYKLFYKSLEVGDIPYSDALKGEEGVQKPKYDTQKEVMRQVLEDLEEAYTLFSSGSDFDGDPIFGGDTENWKKTVVAFELKVLTHLCKKDTDADLKVKERFARLVSSGSLMTSNADNFQLVYSNKAGQLYPFYYTQNKHSDYLMMSSVIIDNLKKFNDYRMFYYASPAKAQTDKGIKDSEWDAYLSIDPSDSYSNISVLYGKGEFCLANLRYTRVPEGEPLMRLSYAEQNFILAEGAVRGWISEDASTYYKKGIEASMNFIADNTPDKEEYTHGRTITQEYIQEYLAQPVIQLSGDKEKDLEMILLQRYLASFLQHPYDAYYDYRRTGYPVLPINPSTNLNTEKNKIPTRWMYPEAEFSYNPDNANEAVQRQYNGSDDVNKLMWILQ
# Legend:
# Test in all cases: glycan array binding signal (z-score within array); higher = stronger binding
# Conditions in all cases: glycan notation: IUPAC condensed, linker removed
# [1] = biological target: Gal(b1-4)GlcNAc(b1-6)GalNAc
# How it was run: (§1)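 Columns mapping to the same glycan were averaged after glycan names were converted to IUPAC-condensed notation. The data come from 3228 arrays in the Consortium for Functional Glycomics database, limited to those with an available protein sequence. Binding is reported as a within-array Z-score averaged across arrays of one protein sequence and across linkers.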
# [2] = biological target: Gal(b1-4)GlcNAc(b1-6)[Gal(b1-3)]GalNAc
# How it was run: as §1
# [3] = biological target: Gal(b1-4)GlcNAc(b1-6)[Gal(b1-4)GlcNAc(b1-3)]GalNAc
# How it was run: as §1
# Gal(b1-4)GlcNAc6P = biological target: Gal(b1-4)GlcNAc6P
# How it was run: as §1
# Gal(b1-6)Gal = biological target: Gal(b1-6)Gal
# How it was run: as §1
# Gal3S(b1-3)GalNAc = biological target: Gal3S(b1-3)GalNAc
# How it was run: as §1
# Gal3S(b1-3)GlcNAc = biological target: Gal3S(b1-3)GlcNAc
# How it was run: as §1
# [4] = biological target: Gal3S(b1-3)[Fuc(a1-4)]GlcNAc
# How it was run: as §1
# Gal3S(b1-4)Glc = biological target: Gal3S(b1-4)Glc
# How it was run: as §1
# Gal3S(b1-4)Glc6S = biological target: Gal3S(b1-4)Glc6S
# How it was run: as §1
# Gal3S(b1-4)GlcNAc = biological target: Gal3S(b1-4)GlcNAc
# How it was run: as §1
# [5] = biological target: Gal3S(b1-4)[Fuc(a1-3)]Glc6S
# How it was run: as §1
# [6] = biological target: Gal3S(b1-4)[Fuc(a1-3)]GlcNAc
# How it was run: as §1
# [7] = biological target: Gal3S(b1-4)[Fuc(a1-3)]GlcNAc6S
# How it was run: as §1
# Gal3S4S(b1-4)GlcNAc = biological target: Gal3S4S(b1-4)GlcNAc
# How it was run: as §1
# Gal3S6S(b1-4)GlcNAc = biological target: Gal3S6S(b1-4)GlcNAc
# How it was run: as §1
# Gal3S6S(b1-4)GlcNAc6S = biological target: Gal3S6S(b1-4)GlcNAc6S
# How it was run: as §1
# Gal4S(b1-4)GlcNAc = biological target: Gal4S(b1-4)GlcNAc
# How it was run: as §1
# Gal4S6S(b1-4)GlcNAc = biological target: Gal4S6S(b1-4)GlcNAc
# How it was run: as §1
# Gal6P(b1-4)GlcNAc = biological target: Gal6P(b1-4)GlcNAc
# How it was run: as §1
# Gal6S(b1-3)GlcNAc = biological target: Gal6S(b1-3)GlcNAc
# How it was run: as §1
# Gal6S(b1-3)GlcNAc6S = biological target: Gal6S(b1-3)GlcNAc6S
# How it was run: as §1
# Gal6S(b1-4)Glc = biological target: Gal6S(b1-4)Glc
# How it was run: as §1
# Gal6S(b1-4)Glc6S = biological target: Gal6S(b1-4)Glc6S
# How it was run: as §1
# Gal6S(b1-4)GlcNAc = biological target: Gal6S(b1-4)GlcNAc
# How it was run: as §1
# Gal6S(b1-4)GlcNAc6S = biological target: Gal6S(b1-4)GlcNAc6S
# How it was run: as §1
# GalNAc(a1-3)Gal = biological target: GalNAc(a1-3)Gal
# How it was run: as §1
# GalNAc(a1-3)GalNAc = biological target: GalNAc(a1-3)GalNAc
# How it was run: as §1
# [8] = biological target: GalNAc(a1-3)GalNAc(b1-3)Gal(a1-4)Gal(b1-4)Glc
# How it was run: as §1
# [9] = biological target: GalNAc(a1-3)GalNAc(b1-3)Gal(a1-4)Gal(b1-4)GlcNAc
# How it was run: as §1
# GalNAc(b1-3)Gal = biological target: GalNAc(b1-3)Gal
# How it was run: as §1
# [10] = biological target: GalNAc(b1-3)Gal(a1-4)Gal(b1-4)GlcNAc
# How it was run: as §1
# [11] = biological target: GalNAc(b1-3)Gal(a1-4)Gal(b1-4)GlcNAc(b1-3)Gal(b1-4)Glc
# How it was run: as §1
# [12] = biological target: GalNAc(b1-3)Gal(a1-6)Gal(b1-4)Glc
# How it was run: as §1
# GalNAc(b1-3)GalNAc = biological target: GalNAc(b1-3)GalNAc
# How it was run: as §1
# GalNAc(b1-3)GlcNAc = biological target: GalNAc(b1-3)GlcNAc
# How it was run: as §1
# GalNAc(b1-4)Gal(b1-4)Glc = biological target: GalNAc(b1-4)Gal(b1-4)Glc
# How it was run: as §1
# GalNAc(b1-4)GlcNAc = biological target: GalNAc(b1-4)GlcNAc
# How it was run: as §1
binder,measurement,setting,value
B1,glycan array binding signal (z-score),[1],1.31
same,glycan array binding signal (z-score),[2],-0.708
same,glycan array binding signal (z-score),[3],-0.716
same,glycan array binding signal (z-score),Gal(b1-4)GlcNAc6P,-0.394
same,glycan array binding signal (z-score),Gal(b1-6)Gal,-0.117
same,glycan array binding signal (z-score),Gal3S(b1-3)GalNAc,-0.969
same,glycan array binding signal (z-score),Gal3S(b1-3)GlcNAc,0.3
same,glycan array binding signal (z-score),[4],-0.673
same,glycan array binding signal (z-score),Gal3S(b1-4)Glc,-0.474
same,glycan array binding signal (z-score),Gal3S(b1-4)Glc6S,-0.973
same,glycan array binding signal (z-score),Gal3S(b1-4)GlcNAc,-0.083
same,glycan array binding signal (z-score),[5],2.33
same,glycan array binding signal (z-score),[6],1.08
same,glycan array binding signal (z-score),[7],1.06
same,glycan array binding signal (z-score),Gal3S4S(b1-4)GlcNAc,-0.412
same,glycan array binding signal (z-score),Gal3S6S(b1-4)GlcNAc,-0.672
same,glycan array binding signal (z-score),Gal3S6S(b1-4)GlcNAc6S,-0.487
same,glycan array binding signal (z-score),Gal4S(b1-4)GlcNAc,-0.228
same,glycan array binding signal (z-score),Gal4S6S(b1-4)GlcNAc,-0.168
same,glycan array binding signal (z-score),Gal6P(b1-4)GlcNAc,-0.571
same,glycan array binding signal (z-score),Gal6S(b1-3)GlcNAc,-0.524
same,glycan array binding signal (z-score),Gal6S(b1-3)GlcNAc6S,0.954
same,glycan array binding signal (z-score),Gal6S(b1-4)Glc,-0.53
same,glycan array binding signal (z-score),Gal6S(b1-4)Glc6S,-0.326
same,glycan array binding signal (z-score),Gal6S(b1-4)GlcNAc,1.16
same,glycan array binding signal (z-score),Gal6S(b1-4)GlcNAc6S,-0.605
same,glycan array binding signal (z-score),GalNAc(a1-3)Gal,0.879
same,glycan array binding signal (z-score),GalNAc(a1-3)GalNAc,-0.06
same,glycan array binding signal (z-score),[8],-0.545
same,glycan array binding signal (z-score),[9],-0.585
same,glycan array binding signal (z-score),GalNAc(b1-3)Gal,-0.84
same,glycan array binding signal (z-score),[10],1.04
same,glycan array binding signal (z-score),[11],-0.14
same,glycan array binding signal (z-score),[12],0.239
same,glycan array binding signal (z-score),GalNAc(b1-3)GalNAc,-0.502
same,glycan array binding signal (z-score),GalNAc(b1-3)GlcNAc,-0.454
same,glycan array binding signal (z-score),GalNAc(b1-4)Gal(b1-4)Glc,1.21
same,glycan array binding signal (z-score),GalNAc(b1-4)GlcNAc,3.09

# Reformatted: entries from further up.
binder | measurement | setting | value
B1 | glycan array binding signal (z-score) | Gal6S(b1-4)GlcNAc6S | -0.605
same | glycan array binding signal (z-score) | GalNAc(a1-3)Gal | 0.879

# Reference: the supplement of paper PMC8728848
